Patent publication US8518924B2, “Agent for inhibiting visceral fat accumulation” (Morinaga Milk Industry Co., Ltd., priority 2005, dated 2013)

Assay: Effect on amount of food consumption and increase in body weight of ZDF rats
Type: in vivo, rat
Conditions: 10 μg/ml solution; for Amount of food consumption compared with negative sample group (in words) / Amount of increased body weight compared with negative sample group (in words): oral once a day; for Amount of increased body weight compared with negative sample group (in words): 42 days; for Increased body weight: during 42 days per rat; for Increased body weight / Amount of food consumption: oral 1 ml per 400 g body weight once a day; for Amount of food consumption: per day per rat, average of about weekly measurements

Row | Compound | Amount of food consumption compared with negative sample group (in words) | Amount of increased body weight compared with negative sample group (in words) | Increased body weight [g] | Amount of food consumption [g]
1 | CC(C)CCCC(C)C1CCC2C3=CCC4C(C)C(O)CCC4(C)C3CCC21C (stereo not drawn) [Compound 3, 4-methylcholest-7-en-3-ol] | did not show significant increase or decrease in amount of food consumption | almost the same as that of the group administered with the negative sample | 137.7 ± 10.8 | 21.7 ± 2.0
2 | CC(C)C(C)CCC(C)C1CCC2C3=CCC4C(C)C(O)CCC4(C)C3CCC21C (stereo not drawn) [Compound 4, 4-methylergost-7-en-3-ol] | did not show significant increase or decrease in amount of food consumption | almost the same as that of the group administered with the negative sample | 128.7 ± 14.5 | 21.7 ± 2.2
3 | CCC(CCC(C)C1CCC2C3=CCC4C(C)C(O)CCC4(C)C3CCC21C)C(C)C (stereo not drawn) [Compound 5, 4-methylstigmast-7-en-3-ol] | did not show significant increase or decrease in amount of food consumption | almost the same as that of the group administered with the negative sample | 152.7 ± 28.1 | 21.4 ± 1.3

Some compounds share one wording; it may come from a single statement.
